{
  "source": "patent US7691423B2",
  "about": "“Method of treating inflammation disorders using extracts of passion fruit” (priority 2005, dated 2010)",
  "origin": "cited, not measured here",
  "test_system": "vascular contraction",
  "note": "At least one compound was matched to its structure with a doubt left.",
  "data": [
    {"smiles": "C[C@@H]1O[C@@H](OC[C@H]2O[C@@H](Oc3c(-c4ccc(O)c(O)c4)oc4cc(O)cc(O)c4c3=O)[C@H](O)[C@@H](O)[C@@H]2O)[C@H](O)[C@H](O)[C@H]1O", "note": "[rutin]", "values": [
      {"measurement": "Large dose acetylcholine-induced vascular contraction", "result": "inhibited"}
    ]}
  ]
}
